No constants are given. Whether binding was seen depends on the method and setting. In cells and extracts the contact can be indirect. Sequences can lack the tags named with a protein.
Target: YN alone (N-terminal part of the yellow fluorescent protein)
Experiment: split reporter; BiFC with YN and YC fusions transiently coexpressed in N. benthamiana leaf epidermis; 25 °C for 24 h; confocal microscopy of YFP

- binding: no binding
B1: YC-RBR1 (RBR1 fused to the C-terminal part of YFP) (protein, UniProt Q9LKZ3 1-1013)
chain: MEEVQPPVTPPIEPNGKRSEASLLDICEKVLSLDGSTCDEALKLFTETKRILSASMSNIGSGTREEVERFWFAFILYSVKRLSVRKEADGLSVSGDNEFNLCQILRALKLNIVDFFKELPQFVVKAGSVLGELYGADWENRLQAKEVQANFVHLSLLSKYYKRGFREFFLTYDANAEKNSANSSTYLLDSYRFGWLLFLALRNHAFSRFKDLVTCSNGVVSILAILIIHVPCRFRNFSIQDSSRFVKKGDKGVDLVASLCKIYDASEDELRIVIDKANNLVETILKKKPSPASECQTDKLDNIDPDGLTYFEDLLEETSISTSLITLEKDYYDGKGELDERVFINEEDSLLGSGSLSAGAVNITGVKRKIDALSSPARTFISPLSPHKSPAAKTNGISGATKLAATPVSTAMTTAKWLRTVISPLLPKPSPGLEHFLKSCDRDITNDVTRRAHIILEAIFPNSSLGAQCGGGSLQAVDLMDDIWAEQRRLEACKLYYRVLEAMCKAEAQILHANNLNSLLTNERFHRCMLACSAELVLATHKTITMLFPAVLERTGITAFDLSKVIESFIRHEDSLPRELRRHLNSLEERLLESMVWEKGSSMYNSLIVARPSLALEINQLGLLAEPMPSLDAIAALINFSDGANHASSVQKHETCPGQNGGIRSPKRLCTDYRSILVERNSFTSPVKDRLLALGNVKSKMLPPPLQSAFASPTRPNPGGGGETCAETGINIFFTKINKLAAVRINGMVERLQLSQQIRESVYCFFQHVLAQRTSLLFSRHIDQIILCCFYGVAKISQMSLTFREIIYNYRKQPQCKPLVFRSVYVDALQCRRQGRIGPDHVDIITFYNEIFIPAVKPLLVELGPVRNDRAVEANNKPEGQCPGSPKVSVFPSVPDMSPKKVSAVHNVYVSPLRGSKMDALISHSTKSYYACVGESTHAYQSPSKDLSAINNRLNNSSSNRKRTLNFDAEAGMVSDSMVANSLNLQNQNQNQNGSDASSSGGAAPLKTEPTDS

From article PMC2504488
